Laboratory results published in patent US8673587B2, “Methods for identifying allosteric and other novel acyl-coenzyme A:cholesterol acyltransferase inhibitors” (Trustees of Dartmouth College, priority 2010, dated 2014).
For at least one compound, name, drawing or mass did not settle the structure.

Biological target: T1, histidine-tagged recombinant human ACAT1 (Homo sapiens, UniProt P35610, M1L)
T1 construct: hACAT-1 cDNA (nucleotide residues 1397-3046, a total of 550 amino acids); made in house; partially purified on a nickel column
T1 sequence (P35610 1-550 M1L): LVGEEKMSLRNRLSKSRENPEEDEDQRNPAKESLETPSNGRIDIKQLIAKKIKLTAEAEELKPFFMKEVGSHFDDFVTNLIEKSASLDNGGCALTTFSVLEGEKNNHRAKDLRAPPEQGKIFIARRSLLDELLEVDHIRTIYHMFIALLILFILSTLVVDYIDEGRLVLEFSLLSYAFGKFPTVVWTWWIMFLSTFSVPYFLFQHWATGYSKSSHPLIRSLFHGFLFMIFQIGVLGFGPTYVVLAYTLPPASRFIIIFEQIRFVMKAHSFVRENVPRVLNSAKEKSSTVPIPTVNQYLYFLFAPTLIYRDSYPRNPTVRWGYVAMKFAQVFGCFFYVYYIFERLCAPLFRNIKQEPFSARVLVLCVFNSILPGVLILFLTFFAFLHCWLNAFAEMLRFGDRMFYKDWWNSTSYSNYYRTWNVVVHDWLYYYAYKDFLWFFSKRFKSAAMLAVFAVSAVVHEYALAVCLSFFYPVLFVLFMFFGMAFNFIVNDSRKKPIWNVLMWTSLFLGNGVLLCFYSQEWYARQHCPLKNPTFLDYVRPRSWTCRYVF
Test: Steroid (pregnenolone/DHEA/E2) esterification in mixed micelles, ACAT1 as enzyme source
Type: biochemical
Conditions: mixed micelles with or without 0.32 mM cholesterol
Excerpt: The method of the present invention was developed in experiments using a mixed micelle enzyme assay system. […] A candidate ACAT inhibitor is an allosteric inhibitor if it is shown in the method of the present invention to inhibit cholesterol-dependent pregnenolone esterification but not to inhibit the basal pregnenolone esterification when cholesterol is absent in the assay mixture. […] In the assay system of the present invention, the source of ACAT was histidine-tagged recombinant human ACAT1 or human ACAT2, stably expressed in Chinese hamster ovary (CHO) cells that lack endogenous ACAT activity. However, one of skill in the art could employ other suitable mammalian cell systems as needed. The enzyme preparations used in the present method were partially purified through the use of nickel column chromatography, as described previously (Liu et al. 2005. Biochem. J. 391:389-397), using cells that stably expressing histidine-tagged recombinant human ACAT1 or human ACAT2 as the enzyme source.
In developing the method of the present invention, a series of experiments was performed. […] The esterification of pregnenolone (i.e., formation of pregnenolone oleate) was monitored by performing lipid extraction to isolate [^3H]-pregnenolone oleate and [^3H]-pregnenolone. […] Levels of [^3H]-pregnenolone oleate formed was measured using a scintillation counter. […]

C[C@]12CC[C@@H]3c4ccc(O)cc4CC[C@H]3[C@@H]1CC[C@@H]2O [estradiol]
ACAT1 substrate (substrate saturation curve): not an ACAT1 substrate
